Some of the results follow. The main result of the screen is listed elsewhere. These columns were measured beside it and carry no call. Most of these compounds were active or inconclusive in the main read-out, so they are no random draw. The note in brackets gives the kind of curve behind each potency; many fits are weak.
Experiment: qHTS Assay to Find Inhibitors of Chronic Active B-Cell Receptor Signaling
Settings: ABC-DLBCL IkBa-CBG/CBR reporter, luminescence ratio (green luciferase fused to IkBa over red control in TMD8 lymphoma cells), 4 h
Summary of the method: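 Cell line TMD8 (human ABC DLBCL), stably expressing tet-inducible CBG68-IkBa fusion and CBR; IMDM/0.5% FBS; cpd up to 46 uM; dox induction, 4 h, 37C/5% CO2; dual luminescence; green/red ratio; MG132 control.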

[1] = measured here: CBR red luminescence, cell number

N#CCC(=O)Nc1ccc(C(=O)OCC(=O)N2CCN(C(=O)c3ccco3)CC2)cc1
AC50 [1]: 7.31 µM [falling, single point]

O=C(CN1C(=O)c2ccccc2S1(=O)=O)NC1CCCCCC1
AC50 [1]: 3.66 µM [rising, partial curve, poor fit]

O=C(O)c1ccc2nc(-c3ccco3)c(-c3ccco3)nc2c1
AC50 [1]: 15.8 µM [falling, single point]

O=C(C1Cc2ccccc2CN1S(=O)(=O)c1cccs1)N1CCCCCC1 (stereo unspecified)
AC50 [1]: 11.6 µM [falling, partial curve]

COc1ccccc1CNS(=O)(=O)c1cccc(S(=O)(=O)N2CCOCC2)c1
AC50 [1]: 29.1 µM [falling, single point]

CN(C)/C=N/c1nc(-c2ccc3ccccc3c2)cs1
AC50 [1]: 35.5 µM [falling, single point]

CC(CCc1ccc(O)cc1)NC1C2CC3CC(C2)CC1C3 (stereo unspecified)
AC50 [1]: 2.59 µM [rising, partial curve, poor fit]

C=CCOc1ccccc1CNCCc1ccc(S(N)(=O)=O)cc1
AC50 [1]: 5.01 µM [falling, full curve, poor fit]

COC(=O)c1sc(NC(=O)/C=C/c2ccc(C)o2)nc1C
AC50 [1]: 1.64 µM [falling, partial curve]

CC(C)(C)NCC(O)(c1ccc(Cl)cc1)c1ccc(Cl)cc1
AC50 [1]: 35.5 µM [falling, single point]

Cc1cc(C(=O)Cn2nnc3ccccc3c2=O)c(C)n1Cc1cccs1
AC50 [1]: 35.5 µM [falling, single point]

O=C(O)c1ccc(COc2ccc(Cl)cc2)o1
AC50 [1]: 14.6 µM [falling, partial curve, poor fit]

CC(C)(C)c1ccc(/C=N/N2CCN(c3ccccn3)CC2)cc1
AC50 [1]: 11.2 µM [rising, single point]

O=C(c1ccc(Cl)cc1)c1ccc(OCC(O)CN2CCCCC2)cc1 (stereo unspecified)
AC50 [1]: 2.06 µM [rising, full curve, poor fit]

c1ccc2c(Nc3ccc4c(c3)OCCO4)c3c(nc2c1)CCC3
AC50 [1]: 22.4 µM [falling, single point]

CCOc1cc(/C=N/NC(=O)c2cccs2)ccc1OC(=O)N1CCOCC1
AC50 [1]: 1.3 µM [falling, full curve]

COc1cc(/C=N/N2C(=O)C3C4c5ccccc5C(c5ccccc54)C3C2=O)ccc1O (stereo unspecified)
AC50 [1]: 14.6 µM [falling, partial curve, poor fit]

CCCCNC(=O)c1cc(-c2ccc(OC)cc2)on1
AC50 [1]: 5.8 µM [falling, full curve]

CC1CCCCC1NC(=O)c1cc2ccccc2o1 (stereo unspecified)
AC50 [1]: 10.3 µM [falling, partial curve]

O=C(COc1ccc(Cl)cc1)NCc1nnc(SCC(=O)Nc2ccccc2F)o1
AC50 [1]: 0.631 µM [falling, full curve, poor fit]

C=CCn1c(SCC(=O)NNC(=O)Nc2cccc(Cl)c2)nnc1-c1ccccc1
AC50 [1]: 3.55 µM [rising, partial curve, poor fit]

CC(OC(=O)c1cc[n+]([O-])cc1)C(=O)Nc1ccc(Cl)cn1 (stereo unspecified)
AC50 [1]: 3.98 µM [falling, full curve, poor fit]

O=C(c1ccccc1)N1CCCC(c2ccc(Cl)cc2)=N1
AC50 [1]: 3.98 µM [falling, partial curve, poor fit]

O=C(Nc1ccc(OCc2ccccc2)cc1)Nc1ccccc1C(=O)NCCCN1CCOCC1
AC50 [1]: 2.51 µM [falling, full curve]

CC1(C)NC(=O)N(c2ccccc2Cl)C1(C)NO (stereo unspecified)
AC50 [1]: 0.00517 µM [falling, full curve, poor fit]

CCN(CC)C(=O)c1[nH]cnc1C(=O)Nc1ccc(OC)cc1
AC50 [1]: 12.6 µM [rising, partial curve, poor fit]

O=[N+]([O-])c1ccc(-c2nc(Nc3ccc(O)cc3)c3ccccc3n2)cc1
AC50 [1]: 5.62 µM [rising, single point]

CCOC(=O)c1cc(CC)sc1/N=C/C1=C(O)CC(C)(C)CC1=O
AC50 [1]: 2.06 µM [rising, full curve]

CCn1nc([N+](=O)[O-])c2c(-c3nc4ccccc4o3)c(N)n(CCCOC)c2c1=O
AC50 [1]: 10 µM [rising, partial curve, poor fit]

COc1ccccc1N1CCN(S(=O)(=O)c2ccc3c(c2)NC(=O)C(C)S3)CC1 (stereo unspecified)
AC50 [1]: 0.355 µM [falling, partial curve, poor fit]

COc1ccc(N2C(=O)[C@@H]3Cc4ccccc4CN3C2=O)cc1
AC50 [1]: 0.501 µM [rising, partial curve, poor fit]

Nc1ccc(C(=O)Nc2ccc3nc(-c4cccnc4)[nH]c3c2)cc1
AC50 [1]: 1.58 µM [falling, partial curve]

CC(=O)N1N=C(c2cccc(NS(=O)(=O)c3ccc(C)cc3)c2)CC1c1ccco1 (stereo unspecified)
AC50 [1]: 11.2 µM [falling, partial curve, poor fit]

CC(CCc1ccc(O)cc1)NCCC(c1ccccc1)c1ccccc1 (stereo unspecified)
AC50 [1]: 35.5 µM [falling, single point]

O=C1CN(C(=O)/C=C/c2ccco2)c2ccccc2N1
AC50 [1]: 15.8 µM [rising, single point]

CCCN(CC1CC1)c1nc(N)c2c(N)nc(OC)cc2c1C#N
AC50 [1]: 11.6 µM [falling, partial curve, poor fit] | AC50 (measured here: IkBa-CBG green luminescence): 7.31 µM [rising, partial curve, poor fit]

O=C(CCn1c(=O)sc2ccccc21)Nc1cccnc1
AC50 [1]: 0.103 µM [rising, full curve, poor fit]

C[C@@]12C(=O)N(c3ccc(Br)cc3)C(=O)N1[C@@H]1c3ccccc3OC[C@@H]1[C@H]2c1ccccc1
AC50 [1]: 25.9 µM [falling, partial curve, poor fit]

c1ccc(-c2nc3nonc3c3nc4ccccc4n23)cc1
AC50 [1]: 3.55 µM [falling, full curve, poor fit]

COc1ccc(-c2cc3nc(C)c(CCC(=O)NC(C)CCc4ccco4)c(C)n3n2)c(OC)c1 (stereo unspecified)
AC50 [1]: 6.51 µM [falling, partial curve]
